# Cell number after 72 h of treatment

Data from the primary screen of doi:10.1371/journal.pone.0140310, rounded.

Drugs:
KU-0063794: COc1ccc(-c2ccc3c(N4CCOCC4)nc(N4C[C@@H](C)O[C@@H](C)C4)nc3n2)cc1CO at 20 nM
OSI-906: C[C@]1(O)C[C@@H](c2nc(-c3ccc4ccc(-c5ccccc5)nc4c3)c3c(N)nccn32)C1 at 400 nM
GW441756: Cn1cc(/C=C2\C(=O)Nc3cccnc32)c2ccccc21 at 400 nM
erlotinib: C#Cc1cccc(Nc2ncnc3cc(OCCOC)c(OCCOC)cc23)c1 at 800 nM
midostaurin: CO[C@@H]1[C@H](N(C)C(=O)c2ccccc2)C[C@H]2O[C@]1(C)n1c3ccccc3c3c4c(c5c6ccccc6n2c5c31)C(=O)NC4 at 80 nM
KU-55933: O=c1cc(-c2cccc3c2Sc2ccccc2S3)oc(N2CCOCC2)c1 at 1000 nM
temozolomide: Cn1nnc2c(C(N)=O)ncn2c1=O at 2000 nM

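Human melanoma cells were exposed to two drugs together for 72 h in 1,536-well plates and read by automated microscopy after fixing and staining. The read-out is cell count (nuclei) in % of the DMSO control; lower values mean stronger growth inhibition or killing. Concentrations were fixed for each drug; these are the lower of two levels, a fifth of the higher. No replicate spread is given; individual values may be noisy.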
An unselected part of the screen is shown.
An entry leaves out what has no value listed here.
A dash means that no value is listed here.

Cell line | KU-0063794 and erlotinib | midostaurin and KU-55933 | KU-55933 and temozolomide | GW441756 and midostaurin | KU-55933 and erlotinib | OSI-906 and erlotinib | midostaurin and OSI-906 | OSI-906 and KU-55933
COLO 829 | 89.6 | 81.3 | 77.9 | 87.6 | 97.4 | 110 | 94.5 | 124
501mel | 116 | 102 | 132 | 108 | 92.7 | - | - | 118
IST-MEL1 | 91.5 | 90.3 | 101 | 98.0 | 112 | 101 | 91.1 | 107
LOX IMVI | 94.9 | 97.5 | 114 | 83.3 | 92.0 | 136 | 103 | 103
COLO 792 | 77.7 | 92.4 | 96.7 | 81.7 | 74.8 | 96.4 | 112 | 96.5
A101D | 89.2 | 88.9 | 115 | 82.1 | 96.7 | 90.7 | 81.5 | 94.5
LB2518-MEL | 97.1 | 114 | 131 | 91.2 | 117 | 99.6 | 90.6 | 103
A2058 | 93.7 | 93.5 | 90.8 | 79.4 | 88.4 | 95.1 | 83.2 | 96.8
C32 | 84.1 | 92.9 | 108 | 96.0 | 103 | 106 | 97.0 | 104
A375 | 98.1 | 100 | 91.7 | 96.0 | 79.6 | 43.7 | 61.9 | -
IPC-298 | 80.7 | 92.1 | 96.4 | 96.0 | 93.4 | 92.9 | 92.0 | 97.9
MEL-HO | 70.9 | 90.5 | 107 | 81.3 | 85.2 | 108 | 83.2 | 114
G-361 | 92.2 | 79.3 | 103 | 77.5 | 82.0 | 93.9 | 81.8 | 97.6
COLO 800 | 72.1 | 130 | 79.2 | 89.8 | 82.2 | 38.9 | 44.2 | 56.4

The first 2 entries again:

{"cell line": "COLO 829", "KU-0063794 and erlotinib": 89.6, "midostaurin and KU-55933": 81.3, "KU-55933 and temozolomide": 77.9, "GW441756 and midostaurin": 87.6, "KU-55933 and erlotinib": 97.4, "OSI-906 and erlotinib": 110, "midostaurin and OSI-906": 94.5, "OSI-906 and KU-55933": 124}
{"cell line": "501mel", "KU-0063794 and erlotinib": 116, "midostaurin and KU-55933": 102, "KU-55933 and temozolomide": 132, "GW441756 and midostaurin": 108, "KU-55933 and erlotinib": 92.7, "OSI-906 and KU-55933": 118}